Results deposited as PubChem BioAssay AID1224830 (NIAID, 2016).
Aim: 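Genes whose knock-down alters the TNF-alpha reporter response to LPS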 (primary screen). Cells: human THP-1 monocytic leukaemia cells, TNF dual-luciferase reporter clone, PMA-differentiated to macrophage-like cells. Reagent: siRNA pool against human genes, 50 nM. Timing: LPS for 4 h, given about 3 days after siRNA transfection. Challenge: bacterial LPS (TLR4 ligand), 10 ng/ml. Measured: 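Ratio of firefly to renilla light, scaled to the plate median and expressed as a robust z-score per replicate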. Scale: TNF reporter robust z-score: higher = stronger TNF reporter response to LPS. Hit rule: 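Each well counts as active if its z-score is over 2.8 or under -1.5; controls are left without a call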.
The whole screen tested about 18,000 reagents; below is an unselected part. About 2,900 of them (16%) count as active. 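Calls are made per well; low scores hint the gene aids the LPS response, high scores that it dampens it.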 Repeated entries: four replicate wells of each siRNA pool.

TNF reporter robust z-score | call | gene knocked down
3.14 | active | RNF113A (ring finger protein 113A)
0.65 | inactive | RNF113A (ring finger protein 113A)
2.44 | inactive | RNF113A (ring finger protein 113A)
1.62 | inactive | RNF113A (ring finger protein 113A)
-1.39 | inactive | FSCB (fibrous sheath CABYR binding protein)
0.53 | inactive | FSCB (fibrous sheath CABYR binding protein)
0.79 | inactive | FSCB (fibrous sheath CABYR binding protein)
0.16 | inactive | FSCB (fibrous sheath CABYR binding protein)
0.5 | inactive | CNPY4 (canopy FGF signaling regulator 4)
0.26 | inactive | CNPY4 (canopy FGF signaling regulator 4)
-0.72 | inactive | CNPY4 (canopy FGF signaling regulator 4)
0.34 | inactive | CNPY4 (canopy FGF signaling regulator 4)
-0.23 | inactive | C1QL4 (complement C1q like 4)
-0.35 | inactive | C1QL4 (complement C1q like 4)
0.27 | inactive | C1QL4 (complement C1q like 4)
0.67 | inactive | C1QL4 (complement C1q like 4)
0.21 | inactive | ZG16B (zymogen granule protein 16B)
-0.02 | inactive | ZG16B (zymogen granule protein 16B)
-0.48 | inactive | ZG16B (zymogen granule protein 16B)
0.67 | inactive | ZG16B (zymogen granule protein 16B)
-0.79 | inactive | GTF3C4 (general transcription factor IIIC subunit 4)
-0.5 | inactive | GTF3C4 (general transcription factor IIIC subunit 4)
-0.57 | inactive | GTF3C4 (general transcription factor IIIC subunit 4)
-0.82 | inactive | GTF3C4 (general transcription factor IIIC subunit 4)
-0.42 | inactive | C1QL2 (complement C1q like 2)
-0.14 | inactive | C1QL2 (complement C1q like 2)
-0.13 | inactive | C1QL2 (complement C1q like 2)
-0.17 | inactive | C1QL2 (complement C1q like 2)
-0.69 | inactive | RAB40A (RAB40A, member RAS oncogene family)
-0.36 | inactive | RAB40A (RAB40A, member RAS oncogene family)
-0.71 | inactive | RAB40A (RAB40A, member RAS oncogene family)
-0.22 | inactive | RAB40A (RAB40A, member RAS oncogene family)
0.67 | inactive | MAP1A (microtubule associated protein 1A)
-0.06 | inactive | MAP1A (microtubule associated protein 1A)
0.79 | inactive | MAP1A (microtubule associated protein 1A)
1.34 | inactive | MAP1A (microtubule associated protein 1A)
0.12 | inactive | SERINC5 (serine incorporator 5)
0.25 | inactive | SERINC5 (serine incorporator 5)
1.46 | inactive | SERINC5 (serine incorporator 5)
0.14 | inactive | FASTKD3 (FASTK mitochondrial RNA regulator 3)
0.95 | inactive | FASTKD3 (FASTK mitochondrial RNA regulator 3)
0.57 | inactive | FASTKD3 (FASTK mitochondrial RNA regulator 3)
-0.81 | inactive | FASTKD3 (FASTK mitochondrial RNA regulator 3)
0.11 | inactive | MTERF1 (mitochondrial transcription termination factor 1)
0.34 | inactive | MTERF1 (mitochondrial transcription termination factor 1)
-0.95 | inactive | MTERF1 (mitochondrial transcription termination factor 1)
-0.61 | inactive | MTERF1 (mitochondrial transcription termination factor 1)
-0.91 | inactive | RIC3 (RIC3 acetylcholine receptor chaperone)
-0.66 | inactive | RIC3 (RIC3 acetylcholine receptor chaperone)
-1.42 | inactive | RIC3 (RIC3 acetylcholine receptor chaperone)
-0.14 | inactive | RIC3 (RIC3 acetylcholine receptor chaperone)
0.67 | inactive | TPX2 (TPX2 microtubule nucleation factor)
0.96 | inactive | TPX2 (TPX2 microtubule nucleation factor)
0.71 | inactive | TPX2 (TPX2 microtubule nucleation factor)
2.01 | inactive | TPX2 (TPX2 microtubule nucleation factor)
0.81 | inactive | AGTRAP (angiotensin II receptor associated protein)
1.08 | inactive | AGTRAP (angiotensin II receptor associated protein)
3.59 | active | AGTRAP (angiotensin II receptor associated protein)
-0.45 | inactive | TSHZ1 (teashirt zinc finger homeobox 1)
0.01 | inactive | TSHZ1 (teashirt zinc finger homeobox 1)
1.13 | inactive | TSHZ1 (teashirt zinc finger homeobox 1)
1.8 | inactive | TSHZ1 (teashirt zinc finger homeobox 1)
0.36 | inactive | LARP7 (La ribonucleoprotein 7, transcriptional regulator)
1.66 | inactive | LARP7 (La ribonucleoprotein 7, transcriptional regulator)
2.82 | active | LARP7 (La ribonucleoprotein 7, transcriptional regulator)
-0.01 | inactive | LARP7 (La ribonucleoprotein 7, transcriptional regulator)
-0.93 | inactive | SLC35B3
1.44 | inactive | SLC35B3
-0.18 | inactive | SLC35B3
1.38 | inactive | SLC35B3
1.75 | inactive | RRAGD (Ras related GTP binding D)
0.54 | inactive | RRAGD (Ras related GTP binding D)
-0.61 | inactive | RRAGD (Ras related GTP binding D)
0.71 | inactive | RRAGD (Ras related GTP binding D)
-2.01 | active | DNAJC25-GNG10 (DNAJC25-GNG10 readthrough)
-1.56 | active | DNAJC25-GNG10 (DNAJC25-GNG10 readthrough)
-1.84 | active | DNAJC25-GNG10 (DNAJC25-GNG10 readthrough)
-1.75 | active | DNAJC25-GNG10 (DNAJC25-GNG10 readthrough)

No new results follow: an excerpt of the list.
TNF reporter robust z-score | call | gene knocked down
2.82 | active | LARP7 (La ribonucleoprotein 7, transcriptional regulator)
-0.01 | inactive | LARP7 (La ribonucleoprotein 7, transcriptional regulator)
-0.93 | inactive | SLC35B3
1.44 | inactive | SLC35B3
